# Results deposited as PubChem BioAssay AID1259424 (University of Nebraska Medical Center, 2018)
# Assay: 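Seek colon cancer survival genes behaving like KSR1, using a six-gene signature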 (primary screen)
# Cell system: human HCT116 colon cancer cells
# Knock-down reagent: siRNA pool against human genes, 50 nM
# Measured: 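Six signature mRNAs by branched-DNA multiplex assay, scaled to two housekeeping genes and non-targeting median, log2; matched to mean KSR1 knockdown profile by Pearson correlation and euclidean distance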
# Direction: mean correlation with KSR1 profile: higher = expression change more like KSR1 knockdown
# The whole screen tested about 14,000 reagents; shown is a part drawn at random. 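Higher correlation or smaller distance means closer resemblance to KSR1 loss; control wells, including KSR1 knockdowns, recur on many plates.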 Not all columns of the deposit are shown. Not stated in the record: the time to read-out.
gene,mean correlation with KSR1 profile
DUSP14 (GeneID 11072),0.294
RAB4B (GeneID 53916),0.391
CYP39A1 (GeneID 51302),-0.768
ZNF222 (GeneID 7673),0.356
SRGAP2 (GeneID 23380),-0.105
IFRD2 (GeneID 7866),-0.219
REXO2 (GeneID 25996),-0.185
WASF1 (GeneID 8936),-0.0541
RRP7A (GeneID 27341),-0.247
TIMP4 (GeneID 7079),0.512
FOXA2 (GeneID 3170),0.435
MGAT4C (GeneID 25834),-0.706
ATL3 (GeneID 25923),-0.67
PRRG1 (GeneID 5638),-0.53
RASGRF2 (GeneID 5924),0.715
PPIL3 (GeneID 53938),-0.581
RPL11 (GeneID 6135),-0.144
KLHL20 (GeneID 27252),0.141
ATP10A (GeneID 57194),-0.657
UBE2M (GeneID 9040),-0.729
CCN3 (GeneID 4856),0.539
TMEM134 (GeneID 80194),-0.237
DOK3 (GeneID 79930),0.0924
DSCC1 (GeneID 79075),-0.848
CEP55 (GeneID 55165),-0.364
TMEM123 (GeneID 114908),-0.428
SPATA16 (GeneID 83893),0.844
OGN (GeneID 4969),0.3
ALDH4A1 (GeneID 8659),0.192
EOMES (GeneID 8320),0.221
RAD51B (GeneID 5890),-0.415
DHDDS (GeneID 79947),-0.169
PLXNC1 (GeneID 10154),0.804
KLHDC4 (GeneID 54758),-0.374
CYP24A1 (GeneID 1591),-0.388
HEPH (GeneID 9843),0.105
SPANXA1 (GeneID 30014),0.0971
CPNE7 (GeneID 27132),-0.21
HCK (GeneID 3055),0.174
TMEM158 (GeneID 25907),-0.0803
RITA1 (GeneID 84934),0.258

Quoted from the entries so far for reference:
gene,mean correlation with KSR1 profile
DSCC1 (GeneID 79075),-0.848
CEP55 (GeneID 55165),-0.364
TMEM123 (GeneID 114908),-0.428
SPATA16 (GeneID 83893),0.844

More results follow.
gene,mean correlation with KSR1 profile
SPAST (GeneID 6683),0.0899
GPR6 (GeneID 2830),0.885
REM1 (GeneID 28954),0.366
FARSB (GeneID 10056),0.331
AGTPBP1 (GeneID 23287),-0.0871
GAGE1 (GeneID 2543),-0.341
RPL27A (GeneID 6157),0.118
EIPR1 (GeneID 7260),-0.575
TPGS2 (GeneID 25941),-0.551
PCDHGA1 (GeneID 56114),-0.709
PDZD11 (GeneID 51248),0.723
RXRA (GeneID 6256),0.564
PPP1R26 (GeneID 9858),-0.381
DCAF10 (GeneID 79269),0.202
INTS7 (GeneID 25896),-0.192
NADSYN1 (GeneID 55191),0.133
RALBP1 (GeneID 10928),-0.561
RPL10A (GeneID 4736),-0.0203
TNFRSF4 (GeneID 7293),0.444
CCNB1IP1 (GeneID 57820),-0.575
SLC30A4 (GeneID 7782),-0.502
NUP210 (GeneID 23225),0.0977
